{"source": "PubChem BioAssay AID1259308 (NCATS, 2017)", "assay": "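Genes whose loss raises luciferase production in HEK293 cells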 (primary screen)", "cells": "human HEK293 embryonic kidney cells stably expressing firefly luciferase (HEK-CMV-Luc2-Hygro)", "reagent": "single siRNA against human genes, 0.8 pmol siRNA per well", "time to read-out": "72 h", "detection": "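Luciferase light (ONE-Glo) measured on one replicate plate set and viability (CellTiter-Glo) on the other, scaled to a negative control siRNA, with robust z-scores and luciferase per cell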", "direction": "total luciferase, z-score: higher = more reporter protein produced", "rule for the call": "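Active when the median/MAD z-score for overall luciferase is greater than 3; a gene was taken forward for validation with new siRNAs if at least two of its three siRNAs passed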", "meaning of the calls": "active = raised luciferase; inactive = no rise", "note": "Shown is one part, drawn at random, of about 59,000 reagents tested. Of all reagents, about 1,510 (2.6%) got an active call. 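Calls use total luciferase alone and ignore viability, so some active siRNAs may act by altering cell number.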 Reagents against one gene are numbered here. Not all columns of the deposit are shown."}
{"target gene": "CABS1 (calcium binding protein, spermatid associated 1)", "reagent no.": 1, "total luciferase, z-score": -0.287, "activity call": "inactive"}
{"target gene": "CABS1 (calcium binding protein, spermatid associated 1)", "reagent no.": 2, "total luciferase, z-score": -1.08, "activity call": "inactive"}
{"target gene": "CABS1 (calcium binding protein, spermatid associated 1)", "reagent no.": 3, "total luciferase, z-score": -0.0816, "activity call": "inactive"}
{"target gene": "PDCL2 (phosducin like 2)", "reagent no.": 1, "total luciferase, z-score": -0.781, "activity call": "inactive"}
{"target gene": "PDCL2 (phosducin like 2)", "reagent no.": 2, "total luciferase, z-score": 0.696, "activity call": "inactive"}
{"target gene": "PDCL2 (phosducin like 2)", "reagent no.": 3, "total luciferase, z-score": 1.33, "activity call": "inactive"}
{"target gene": "SH3BP5 (SH3 domain binding protein 5)", "reagent no.": 1, "total luciferase, z-score": -0.346, "activity call": "inactive"}
{"target gene": "SH3BP5 (SH3 domain binding protein 5)", "reagent no.": 2, "total luciferase, z-score": 1.21, "activity call": "inactive"}
{"target gene": "SH3BP5 (SH3 domain binding protein 5)", "reagent no.": 3, "total luciferase, z-score": -0.23, "activity call": "inactive"}
{"target gene": "C1QTNF3 (C1q and TNF related 3)", "reagent no.": 1, "total luciferase, z-score": 1.41, "activity call": "inactive"}
{"target gene": "C1QTNF3 (C1q and TNF related 3)", "reagent no.": 2, "total luciferase, z-score": -0.085, "activity call": "inactive"}
{"target gene": "C1QTNF3 (C1q and TNF related 3)", "reagent no.": 3, "total luciferase, z-score": -0.849, "activity call": "inactive"}
{"target gene": "SSBP4 (single stranded DNA binding protein 4)", "reagent no.": 1, "total luciferase, z-score": -1.77, "activity call": "inactive"}
{"target gene": "SSBP4 (single stranded DNA binding protein 4)", "reagent no.": 2, "total luciferase, z-score": -0.0498, "activity call": "inactive"}
{"target gene": "SSBP4 (single stranded DNA binding protein 4)", "reagent no.": 3, "total luciferase, z-score": 4.09, "activity call": "active"}
{"target gene": "DHRS7 (dehydrogenase/reductase 7)", "reagent no.": 1, "total luciferase, z-score": 0.401, "activity call": "inactive"}
{"target gene": "DHRS7 (dehydrogenase/reductase 7)", "reagent no.": 2, "total luciferase, z-score": -0.148, "activity call": "inactive"}
{"target gene": "DHRS7 (dehydrogenase/reductase 7)", "reagent no.": 3, "total luciferase, z-score": 0.553, "activity call": "inactive"}
{"target gene": "TMEM9 (transmembrane protein 9)", "reagent no.": 1, "total luciferase, z-score": -1.55, "activity call": "inactive"}
{"target gene": "TMEM9 (transmembrane protein 9)", "reagent no.": 2, "total luciferase, z-score": -0.532, "activity call": "inactive"}
{"target gene": "TMEM9 (transmembrane protein 9)", "reagent no.": 3, "total luciferase, z-score": -0.883, "activity call": "inactive"}

Called active, among the entries above:
{"target gene": "SSBP4 (single stranded DNA binding protein 4)", "reagent no.": 3, "total luciferase, z-score": 4.09, "activity call": "active"}

Next entries:
{"target gene": "KRTAP3-3 (keratin associated protein 3-3)", "reagent no.": 1, "total luciferase, z-score": -0.727, "activity call": "inactive"}
{"target gene": "KRTAP3-3 (keratin associated protein 3-3)", "reagent no.": 2, "total luciferase, z-score": -0.397, "activity call": "inactive"}
{"target gene": "KRTAP3-3 (keratin associated protein 3-3)", "reagent no.": 3, "total luciferase, z-score": 0.228, "activity call": "inactive"}
{"target gene": "NELL2 (neural EGFL like 2)", "reagent no.": 1, "total luciferase, z-score": -0.554, "activity call": "inactive"}
{"target gene": "NELL2 (neural EGFL like 2)", "reagent no.": 2, "total luciferase, z-score": 0.0242, "activity call": "inactive"}
{"target gene": "NELL2 (neural EGFL like 2)", "reagent no.": 3, "total luciferase, z-score": -0.0932, "activity call": "inactive"}
{"target gene": "GAB1 (GRB2 associated binding protein 1)", "reagent no.": 1, "total luciferase, z-score": 1.19, "activity call": "inactive"}
{"target gene": "GAB1 (GRB2 associated binding protein 1)", "reagent no.": 2, "total luciferase, z-score": -0.1, "activity call": "inactive"}
{"target gene": "GAB1 (GRB2 associated binding protein 1)", "reagent no.": 3, "total luciferase, z-score": 1.55, "activity call": "inactive"}
{"target gene": "DONSON (DNA replication fork stabilization factor DONSON)", "reagent no.": 1, "total luciferase, z-score": 0.0942, "activity call": "inactive"}
{"target gene": "DONSON (DNA replication fork stabilization factor DONSON)", "reagent no.": 2, "total luciferase, z-score": -0.139, "activity call": "inactive"}
{"target gene": "DONSON (DNA replication fork stabilization factor DONSON)", "reagent no.": 3, "total luciferase, z-score": -0.268, "activity call": "inactive"}
{"target gene": "GJB1 (gap junction protein beta 1)", "reagent no.": 1, "total luciferase, z-score": 4.22, "activity call": "active"}
{"target gene": "GJB1 (gap junction protein beta 1)", "reagent no.": 2, "total luciferase, z-score": -0.212, "activity call": "inactive"}
{"target gene": "GJB1 (gap junction protein beta 1)", "reagent no.": 3, "total luciferase, z-score": -1.09, "activity call": "inactive"}
{"target gene": "LYRM9 (LYR motif containing 9)", "reagent no.": 1, "total luciferase, z-score": 0.898, "activity call": "inactive"}
{"target gene": "LYRM9 (LYR motif containing 9)", "reagent no.": 2, "total luciferase, z-score": -0.116, "activity call": "inactive"}
{"target gene": "LYRM9 (LYR motif containing 9)", "reagent no.": 3, "total luciferase, z-score": 2, "activity call": "inactive"}
{"target gene": "TTPAL (alpha tocopherol transfer protein like)", "reagent no.": 1, "total luciferase, z-score": -0.836, "activity call": "inactive"}
{"target gene": "TTPAL (alpha tocopherol transfer protein like)", "reagent no.": 2, "total luciferase, z-score": -1, "activity call": "inactive"}
{"target gene": "TTPAL (alpha tocopherol transfer protein like)", "reagent no.": 3, "total luciferase, z-score": 3.13, "activity call": "active"}
